# Experimental data: the supplement of paper PMC8551327
# Structures can show the parent of a compound that is named as a salt. This is one part of the list. No stated cut-off is given here; in the data, active = 1.25 or more and inactive = the rest. Single values are uncertain, as repeats are few or missing.
# System: Kcc2-LUC knock-in mouse primary cortical neurons (Kcc2 promoter reporter)
# Test: Kcc2 promoter-driven luciferase activity relative to vehicle control (fold of vehicle (ratio)); higher = stronger Kcc2 promoter activation (Kcc2 expression enhancer)
# Conditions: 100 nM; 48 h
row,Structure (SMILES),Kcc2 promoter-driven luciferase activity
1,Nc1ccc(N)c2c1C(=O)c1ccccc1C2=O [Disperse Violet 1],inactive: 0.95
2,N#CC1CC(c2ccccc2)Nc2cc(Cl)ccc2N1 (centres undefined),inactive: 0.98
3,CC(=O)C1=C(O)C2(O)C(=O)c3c(c(C)c4ccc(C)c(O)c4c3O)CC2C(N)C1=O (centres undefined) [Chelocardin dodecyl sulfate],active: 1.3
4,O=C1/C(=C\c2ccc(Cl)c(Cl)c2)CN(C(=O)CCN2CCOCC2)C/C1=C\c1ccc(Cl)c(Cl)c1,inactive: 1.17
5,CC[C@]1(O)C[C@H]2CN(CCc3c([nH]c4ccccc34)[C@@](C(=O)OC)(c3cc4c(cc3OC)N(C=O)[C@H]3[C@@](O)(C(=O)OC)[C@H](OC(C)=O)[C@]5(CC)C=CCN6CC[C@]43[C@@H]65)C2)C1 [Vincristine sulfate],inactive: 1.09
6,CC1(C)NC(=O)N(CCCCCCN2C(=O)NC(C)(C)C2=O)C1=O,inactive: 1.13
7,COC(=O)NC1C(C)OC(OC2C/C=C(/C)C3C=CC4C(OC5CC(OC6CCC(OC7CC(O)C(OC8CCC(O)C(C)O8)C(C)O7)C(C)O6)C(OC(C)=O)C(C)O5)C(C)CC(C)C4C3(C)/C(O)=C3/C(=O)OC4(CC(C=O)=CC(O)C4/C=C\2C)C3=O)CC1(C)[N+](=O)[O-] (centres undefined),inactive: 0.8
8,Cc1ccc(NC(=O)c2cccc([N+](=O)[O-])c2O)c([N+](=O)[O-])c1 [2-Hydroxy-N-(4-methyl-2-nitrophenyl)-3-nitrobenzamide],inactive: 1.2
9,"CN(C)CCCN1c2ccccc2Sc2ccc3ccccc3c21 [3-Benzo[a]phenothiazin-12-yl-N,N-dimethylpropan-1-amine]",inactive: 1.13
10,"CCCCCC(/C=C/[C@@H]1CC(=O)C[C@H]1O[Si](C)(C)C(C)(C)C)OCOCCOC (some centres undefined) [Cyclopentanone,1-dimethylethyl)silyl]oxy]-]",inactive: 0.644
11,COc1cc2oc(=O)cc(C)c2cc1[N+](=O)[O-] [7-Methoxy-4-methyl-6-nitrochromen-2-one],inactive: 1.14
12,COc1cc2c[n+](C)c3c4cc5c(cc4ccc3c2cc1OC)OCO5 [Nitidine chloride],inactive: 1
13,"O=C1c2ccccc2C(=O)c2sc(Nc3ccc(Cl)c(Cl)c3)nc21 [2-(3,4-dichloroanilino)benzo[f][1,3]benzothiazole-4,9-dione]",inactive: 0.93
14,CC1=C/C(=N\OCC(=O)O)CC(c2ccc(C(C)C)cc2)C1 (centres undefined),inactive: 0.84
15,CC(=O)OC[C@H]1O[C@@H](NC(=O)N(CCCl)N=O)[C@H](OC(C)=O)[C@@H](OC(C)=O)[C@@H]1OC(C)=O,inactive: 1.23
16,C/C(NNC(=O)c1ccccc1O)=C1\C=Nc2ccccc2S1,active: 1.35
17,O=C1Cc2c([nH]c3ccc(Br)cc23)-c2ccccc2N1 [Kenpaullone],active: 1.86
18,Cc1ccc(/C=C2\CNC/C(=C\c3ccc(C)cc3)C2=O)cc1,inactive: 1.17
19,COc1cc2c3c(c1OC)-c1cc4c(cc1CC3(C#N)N(C(=O)c1ccccc1)CC2)OCO4 (centres undefined),inactive: 1.09
20,COCC(=O)OC1CCn2c1nc1c2C(=O)C(C)=C(NC(C)=O)C1=O (centres undefined),inactive: 0.92

row,Structure (SMILES),Kcc2 promoter-driven luciferase activity
1,COc1ccc2cc3[n+](cc2c1OC)CCc1cc2c(cc1-3)OCO2 [Berberine Chloride],inactive: 0.9
2,Cc1ccc(S(=O)(=O)c2ccccc2[N+](=O)[O-])cc1 [1-Nitro-2-tosylbenzene],inactive: 0.732
3,COc1cc2c(cc1Oc1ccc(OC)c3c1CC1c4c(cc(OC)c(OC)c4-3)CCN1C)CC1c3c(cc(OC)c(OC)c3-2)CCN1C (centres undefined),inactive: 0.01
4,O=C(CC(O)(C(F)(F)F)C(F)(F)Cl)CC(O)(C(F)(F)F)C(F)(F)Cl (centres undefined),inactive: 0.88
5,CCOC(=O)CNC(=O)NC12CC3CC(CC(C3)C1)C2 [ethyl 2-(1-adamantylcarbamoylamino)acetate],inactive: 1.13
6,C/C=C/c1cc2c(c(=O)o1)C(=O)[C@@H](O)[C@H](C)O2 [Radicinin],inactive: 0.4
7,CN(C)c1cccc(/C=C(\C#N)c2ccccc2)c1 [(Z)-3-[3-(dimethylamino)phenyl]-2-phenylprop-2-enenitrile],inactive: 0.97
8,C=CC(=O)N1C/C(=C\c2ccc([N+](=O)[O-])cc2)C(=O)/C(=C/c2ccc([N+](=O)[O-])cc2)C1,inactive: 1.21
9,Cc1cc([N+](=O)[O-])ccc1Nc1cccc(Cl)c1C [3-chloro-2-methyl-N-(2-methyl-4-nitrophenyl)aniline],inactive: 0.68
10,COc1cc2oc3cc(=O)cc4oc(-c5ccccc5)cc(c2c2c1CC[C@@H](c1ccccc1)O2)c43 [Nordracorubin],inactive: 1.23
11,C/C=C(\CCC1NCCc2c1[nH]c1ccccc21)[Si](C)(C)C (centres undefined),active: 1.52
12,O=C1C=CN(C2OC(CO)C(O)C2O)C(=O)C1 (centres undefined) [DeazaUrd],active: 1.25
13,COc1cc(NS(C)(=O)=O)ccc1Nc1c2ccccc2nc2ccccc12 [Amsacrine],inactive: 0.99
14,COc1cc2cc(c1Cl)N(C)C(=O)C[C@H](OC(=O)[C@H](C)N(C)C(C)=O)[C@]1(C)O[C@H]1[C@H](C)[C@@H]1C[C@@](O)(NC(=O)O1)[C@H](OC)/C=C/C=C(\C)C2 [Maytansine],inactive: 0.435
15,CC(=O)Oc1ccc(C(c2ccc(OC(C)=O)cc2)c2ccccn2)cc1 [Bisacodyl],inactive: 0.34
16,CCCCC[C@@H](O)[C@H]1C(=O)O[C@H](C)[C@@H](O)/C=C/C=C/C=C/C=C/C=C(\C)[C@@H](O)C[C@H](O)C[C@H](O)C[C@H](O)C[C@H](O)C[C@H](O)C[C@@H]1O [Filipin],inactive: 0.938
17,CN(C)c1ccc(/C=C2/C=Cc3ccccc32)cc1 [1-[4-(Dimethylaminobenzylidene)]indene],inactive: 0.48
18,CCCn1c(=O)c2ccccc2[n+]2c(-c3ccc([N+](=O)[O-])cc3)csc12,inactive: 0.79
19,CCc1cccc(CC)c1NC(=O)C(C#N)C1=C(Cl)C(=O)c2ccccc2C1=O (centres undefined),inactive: 0.01

# Individual results from the results shown.
# Under Kcc2 promoter-driven luciferase activity, CN(C)CCCN1c2ccccc2Sc2ccc3ccccc3c21 [3-Benzo[a]phenothiazin-12-yl-N,N-dimethylpropan-1-amine] shows inactive: 1.13
# Under Kcc2 promoter-driven luciferase activity, O=C1Cc2c([nH]c3ccc(Br)cc23)-c2ccccc2N1 [Kenpaullone] shows active: 1.86
